Data as given in the supplement of paper PMC9744312.
Counter-ions that a name gives are not always drawn. Some of the results follow. Single values of this set are uncertain.

Each compound was assayed on Peyronie's disease tunica albuginea primary fibroblasts (assay: cell viability (DRAQ5 nuclear stain) relative to TGF-beta1-only control; higher = more viable cells). Settings: 10 µM; TGF-beta1 10 ng/mL; 72 h.

| Structure (SMILES) | cell viability [%] |
| --- | --- |
| NC(=O)c1nc(F)cnc1O [Favipiravir (T-705)] | 88.6 |
| CCCSc1nc(N[C@@H]2C[C@H]2c2ccc(F)c(F)c2)c2nnn([C@@H]3C[C@H](OCCO)[C@@H](O)[C@H]3O)c2n1 [Ticagrelor] | 103 |
| N[C@@H]1CONC1=O [D-Cycloserine] | 82.5 |
| O=C(O)COCCN1CCN(C(c2ccccc2)c2ccc(Cl)cc2)CC1 (centres undefined) [Cetirizine DiHCl] | 96.4 |
| CC(=O)Oc1ccc(C(=C2CCCCC2)c2ccc(OC(C)=O)cc2)cc1 [Cyclofenil] | 85.9 |
| CC(=O)O[C@]1(C(C)=O)CC[C@H]2[C@@H]3C=C(Cl)C4=CC(=O)[C@@H]5C[C@@H]5[C@]4(C)[C@H]3CC[C@@]21C [Cyproterone Acetate] | 96.4 |
| CC(C)c1cc(-c2n[nH]c(=O)n2-c2ccc3c(ccn3C)c2)c(O)cc1O [Ganetespib (STA-9090)] | 46.6 |
| Nc1ncnc2c1ncn2[C@@H]1O[C@H](CO)[C@@H](O)[C@H]1O [Adenosine] | 101 |
| Clc1ccc(CSC(Cn2ccnc2)c2ccc(Cl)cc2Cl)cc1 (centres undefined) [Sulconazole Nitrate] | 69.9 |
| CO[C@H]1C[C@@H]2CC[C@@H](C)[C@@](O)(O2)C(=O)C(=O)N2CCCC[C@H]2C(=O)O[C@H]([C@H](C)C[C@@H]2CC[C@@H](OCCO)[C@H](OC)C2)CC(=O)[C@H](C)/C=C(\C)[C@@H](O)[C@@H](OC)C(=O)[C@H](C)C[C@H](C)/C=C/C=C/C=C/1C [Everolimus (RAD001)] | 65.4 |
| CN(C)CCN(Cc1ccccc1)c1ccccn1 [Tripelennamine HCl] | 98 |
| CC1CNc2c(cccc2S(=O)(=O)N[C@@H](CCCNC(=N)N)C(=O)N2CC[C@@H](C)C[C@@H]2C(=O)O)C1 (some centres undefined) [Argatroban Monohydrate] | 82.6 |
| CC1CNc2c(cccc2S(=O)(=O)N[C@@H](CCCNC(=N)N)C(=O)N2CC[C@@H](C)C[C@@H]2C(=O)O)C1 (some centres undefined) [Argatroban] | 89.3 |
| Nc1ccn([C@@H]2O[C@H](CO)[C@@H](O)C2(F)F)c(=O)n1 [Gemcitabine HCl] | 71.7 |
| Nc1ccn([C@@H]2O[C@H](CO)[C@@H](O)C2(F)F)c(=O)n1 [Gemcitabine] | 66.7 |
| CC(O)C(=O)O.N (centres undefined) [Ammonium lactate] | 104 |
| CC(=O)O[C@@]12CO[C@@H]1C[C@H](O)[C@@]1(C)C(=O)[C@H](O)C3=C(C)[C@@H](OC(=O)[C@H](O)[C@@H](NC(=O)OC(C)(C)C)c4ccccc4)C[C@@](O)([C@@H](OC(=O)c4ccccc4)[C@H]21)C3(C)C [Docetaxel Trihydrate] | 64.9 |
| CC(=O)O[C@@]12CO[C@@H]1C[C@H](O)[C@@]1(C)C(=O)[C@H](O)C3=C(C)[C@@H](OC(=O)[C@H](O)[C@@H](NC(=O)OC(C)(C)C)c4ccccc4)C[C@@](O)([C@@H](OC(=O)c4ccccc4)[C@H]21)C3(C)C [Docetaxel] | 54.4 |
| COc1cc(O)c(C(=O)c2ccccc2)cc1S(=O)(=O)O [Sulisobenzone] | 98.4 |
| Nc1cccc2c1C(=O)N(C1CCC(=O)NC1=O)C2=O (centres undefined) [Pomalidomide] | 65.4 |
| COc1cc(C(=O)O)ccc1NC(=O)[C@@H]1N[C@@H](CC(C)(C)C)[C@](C#N)(c2ccc(Cl)cc2F)[C@H]1c1cccc(Cl)c1F [Idasanutlin (RG-7388)] | 68.4 |
| CC1(C)CCC(C)(C)c2cc(NC(=O)c3ccc(C(=O)O)cc3)ccc21 [Tamibarotene] | 85.5 |
| N[C@@H](Cc1cc(I)c(Oc2cc(I)c(O)c(I)c2)c(I)c1)C(=O)O [L-Thyroxine] | 83.8 |

Pulled one by one from the list above (5):

| Structure (SMILES) | cell viability [%] |
| --- | --- |
| Nc1ncnc2c1ncn2[C@@H]1O[C@H](CO)[C@@H](O)[C@H]1O [Adenosine] | 101 |
| CC(=O)O[C@]1(C(C)=O)CC[C@H]2[C@@H]3C=C(Cl)C4=CC(=O)[C@@H]5C[C@@H]5[C@]4(C)[C@H]3CC[C@@]21C [Cyproterone Acetate] | 96.4 |
| CC(=O)O[C@@]12CO[C@@H]1C[C@H](O)[C@@]1(C)C(=O)[C@H](O)C3=C(C)[C@@H](OC(=O)[C@H](O)[C@@H](NC(=O)OC(C)(C)C)c4ccccc4)C[C@@](O)([C@@H](OC(=O)c4ccccc4)[C@H]21)C3(C)C [Docetaxel] | 54.4 |
| Nc1ccn([C@@H]2O[C@H](CO)[C@@H](O)C2(F)F)c(=O)n1 [Gemcitabine HCl] | 71.7 |
| CC(=O)O[C@@]12CO[C@@H]1C[C@H](O)[C@@]1(C)C(=O)[C@H](O)C3=C(C)[C@@H](OC(=O)[C@H](O)[C@@H](NC(=O)OC(C)(C)C)c4ccccc4)C[C@@](O)([C@@H](OC(=O)c4ccccc4)[C@H]21)C3(C)C [Docetaxel Trihydrate] | 64.9 |

More entries.

| Structure (SMILES) | cell viability [%] |
| --- | --- |
| N[C@@H](Cc1cc(I)c(Oc2cc(I)c(O)c(I)c2)c(I)c1)C(=O)O [Levothyroxine sodium] | 92.5 |
| N=C(N)NC(=O)Cc1c(Cl)cccc1Cl [Guanfacine Hydrochloride] | 113 |
| CC(=O)[C@H]1CC[C@H]2[C@@H]3CCC4=CC(=O)CC[C@]4(C)[C@H]3CC[C@]12C [Progesterone] | 90.6 |
| O=C(O)CSc1nnc(Br)n1-c1ccc(C2CC2)c2ccccc12 [Lesinurad] | 95.3 |
| CN(C)CC/C=C1/c2ccccc2Sc2ccc(Cl)cc21 [Chlorprothixene hydrochloride] | 83.9 |
| CN(C)CC/C=C1/c2ccccc2Sc2ccc(Cl)cc21 [Chlorprothixene] | 81.1 |
| CN(C)CCOC(c1ccccc1)c1ccccc1 [Diphenhydramine HCl] | 92.9 |
| C[C@]12CC[C@@H]3c4ccc(O)cc4CC[C@H]3[C@@H]1CC[C@@H]2O [Estradiol] | 97.2 |
| CCCC(CCC)C(N)=O [Valpromide] | 89 |
| CCN(CC)C(=O)c1cccc(C)c1 | 90.7 |
| CCN(CC)C(=O)c1cccnc1 [Nikethamide] | 84 |
| CC(OC(=O)OC1CCCCC1)OC(=O)C1=C(CSc2nnnn2CCN(C)C)CS[C@@H]2[C@H](NC(=O)Cc3csc(N)n3)C(=O)N12 (some centres undefined) [Cefotiam Hexetil Hydrochloride] | 93.9 |
| CCCN(CCC)S(=O)(=O)c1ccc(C(=O)O)cc1 [Probenecid] | 92.9 |
| Cc1c(-c2ccccc2)oc2c(C(=O)OCCN3CCCCC3)cccc2c1=O [Flavoxate HCl] | 79 |
| COc1ccc(O)cc1 [Mequinol] | 92.1 |
| CCCCCCOC(=O)NC(=N)c1ccc(NCc2nc3cc(C(=O)N(CCC(=O)OCC)c4ccccn4)ccc3n2C)cc1 [Dabigatran Etexilate] | 86.1 |
| NCCCC(=O)O [4-Aminobutyric acid] | 97.7 |
| CCN(CC)CCOC(=O)c1ccc(N)cc1Cl [Chloroprocaine HCl] | 91.5 |
| C[C@@H]1NC(=O)[C@@H](N)CNC(=O)[C@H](C2CCNC(=N)N2)NC(=O)/C(=C/NC(N)=O)NC(=O)[C@H](CNC(=O)CC(N)CCCN)NC1=O.N=C1NCC[C@H]([C@@H]2NC(=O)/C(=C/NC(N)=O)NC(=O)[C@H](CNC(=O)C[C@@H](N)CCCN)NC(=O)[C@H](CO)NC(=O)[C@@H](N)CNC2=O)N1 [Capreomycin Sulfate] | 92.7 |
| CC12CCC(CC1=O)C2(C)C (stereo not drawn) [(+)-Camphor] | 98.3 |
| C#Cc1cccc(Nc2ncnc3cc(OCCOC)c(OCCOC)cc23)c1 [Erlotinib] | 87 |
| C#Cc1cccc(Nc2ncnc3cc(OCCOC)c(OCCOC)cc23)c1 [Erlotinib HCl (OSI-744)] | 88.3 |
| Cc1onc(-c2ccccc2Cl)c1C(=O)N[C@@H]1C(=O)N2[C@@H]1SC(C)(C)[C@@H]2C(=O)O [Cloxacillin Sodium] | 92.2 |

| Structure (SMILES) | cell viability [%] |
| --- | --- |
| CN[C@@H]1[C@H](O)[C@H](NC)[C@H]2O[C@@]3(O)C(=O)C[C@@H](C)O[C@H]3O[C@@H]2[C@H]1O [Spectinomycin 2HCl] | 91.4 |
| NS(=O)(=O)c1cc2c(cc1Cl)NC(C(Cl)Cl)NS2(=O)=O (centres undefined) [Trichlormethiazide] | 94 |
| COc1ccccc1Oc1c(NS(=O)(=O)c2ccc(C(C)(C)C)cc2)nc(-c2ncccn2)nc1OCCO [Bosentan Hydrate] | 98.1 |
| COc1cc2c(Oc3ccc(NC(=O)C4(C(=O)Nc5ccc(F)cc5)CC4)cc3F)ccnc2cc1OCCCN1CCOCC1 | 36.3 |
| CC(C)[N+](C)(CCOC(=O)C1c2ccccc2Oc2ccccc21)C(C)C [Propantheline bromide] | 85.3 |
| CN1CCC[C@@H]1Cc1c[nH]c2ccc(CCS(=O)(=O)c3ccccc3)cc12 [Eletriptan HBr] | 94 |
| CN(C)CCC=C1c2ccccc2COc2ccccc21 [Doxepin HCl] | 76.4 |
| O=C(N[C@H](CO)[C@H](O)c1ccc([N+](=O)[O-])cc1)C(Cl)Cl [Chloramphenicol] | 90.1 |
| CCC[C@@H]1C[C@@H](C(=O)N[C@@H]([C@H]2O[C@H](SC)[C@H](O)[C@@H](O)[C@H]2O)[C@H](C)Cl)N(C)C1 [Clindamycin] | 89.4 |
| CCC[C@@H]1C[C@@H](C(=O)N[C@@H]([C@H]2O[C@H](SC)[C@H](O)[C@@H](O)[C@H]2O)[C@H](C)Cl)N(C)C1 [Clindamycin HCl] | 98.7 |
| C=C1/C(=C\C=C2/CCC[C@]3(C)[C@@H]([C@H](C)CCCC(C)C)CC[C@@H]23)C[C@@H](O)C[C@@H]1O [Alfacalcidol] | 69.3 |
| CCOc1ccc2ccccc2c1C(=O)N[C@@H]1C(=O)N2[C@@H]1SC(C)(C)[C@@H]2C(=O)O [Nafcillin Sodium] | 90.6 |
| CCN(CC)CCNC(=O)c1cc(Cl)c(N)cc1OC [Metoclopramide HCl] | 86.3 |
| CC1=NN(c2ccccc2)C(=O)C1 [Edaravone] | 87.1 |
| CN1CC(=O)N2[C@H](c3ccc4c(c3)OCO4)c3[nH]c4ccccc4c3C[C@@H]2C1=O [Tadalafil] | 86.6 |
| CCN(C(=O)c1c(O)c2c(Cl)cccc2n(C)c1=O)c1ccccc1 [Laquinimod] | 96.7 |
| CC(=O)[C@@]1(O)CC[C@H]2[C@@H]3C[C@H](C)C4=CC(=O)C=C[C@]4(C)[C@@]3(F)[C@@H](O)C[C@@]21C [Fluorometholone] | 93 |
| CCc1nc(N)nc(N)c1-c1ccc(Cl)cc1 [Pyrimethamine] | 94.4 |
| CC(C)NCC(O)COc1ccc(CCOCC2CC2)cc1 (centres undefined) [Betaxolol] | 91.7 |
| CC(C)NCC(O)COc1ccc(CCOCC2CC2)cc1 (centres undefined) [Betaxolol HCl] | 88.3 |
| COc1cc(C(=O)NCc2ccc(OCCN(C)C)cc2)cc(OC)c1OC [Tribenzagan Hydrochloride] | 78 |
| CCCN1CCCC[C@H]1C(=O)Nc1c(C)cccc1C [Ropivacaine HCl] | 88 |
| CCCN1CCCC[C@H]1C(=O)Nc1c(C)cccc1C [Ropivacaine] | 101 |
